Laboratory results published in patent US8334261B2, “Osteopenia animal model” (Oriental Yeast Co., Ltd., priority 2006, dated 2012).

Test system: GST-RANKL-administered 7-week-old female C57BL/6 mice
Assay: Comparison of a plurality of bisphosphonates in GST-RANKL mice
Assay type: in vivo, mouse
Details: 300 μg/kg; 0.6-mm point
Procedure: GST-RANKL was intraperitoneally administered 3 times at 1 mg/kg every 24 hours. The femur, tibia, and serum were collected from each mouse 1.5 hours after the 3rd GST-RANKL administration. Measurement of TRAP-5b, calcium (Ca), and alkaline phosphatase (ALP) in the serum was carried out. Each femur was subjected to bone density measurement with pQCT and image analysis with micro CT.

NCCCC(O)(P(=O)(O)O)P(=O)(O)O [alendronate]
bone density decrease suppressed to: 1%
